This note sets out measurements from paper PMC8517208.

The chains are these.
B1: Exportin-T (protein, UniProt Q9CRT8 1-963)
chain: MDEQALLGLNPNADSDFRQRALAYFEQLKISPDAWQVCAEALAQKTYSDDHVKFFCFQVLEHQVKYKYSELSTAQQQLIRETLLSWLQAQMQNPQPEKTFIRNKAAQVFALLFVTEYLTKWPKFFFDILSVVDLNPRGVDLYLRILMAIDSELVDRDVVHTSEASGLENTLIKDTMREQCIPNLVESWYQILHNYQYTNSEVLCQCLEVVGAYVSWIDLSLIANDRFINMLLGHMSVEVLREEACDCLFEIVNKGMDPVDKMKLVESLCQVLQTAGFFSIDQEEDLDFVARFSKLVNGMGQSLIVSWTKLIKNGAVKNAQEALEAIETKVPLMLQLLVHEDDDISSNIIGFCYDYLHILKQLPVLSDQQKANVEAIMLAVMKKLTYDEEYNFENEGEDEAMFVEYRKQLKLLLDRLAQVSPELVLASVRRVFSATLQNWQTTRFMEVEVAVRLLYMLAEALPVSHGAHFSGDVSKASALQDMMRTLVTSGVSSYQHTSVTLEFFETVVRYEKFFTVEPQHIPCVLMAFLDHRGLWHSSAKVRSRTAYLFSRFVKSLNKQMNPYIEEILNRIQDLLALSPPENGYQSLLSSDDQLFIYETAGALIVNSEYPAENKQALMKDLLTPLMERFKVLLEKLMMAQDEERQASLADSLNHAVGFASRTSKAFSNKQTVKQCGCSQVYLDCLQTFLPALSCPLQKDVLRSGVRTFLHRMIICLEEEVLPFIPSASEHMLKDCEAKDLQEFIPLINQITAKFKMQVSPFLQQMFMPLLHAIFEVLLRPAEDNDQSAALEKQMLRRSYFAFLQTVTGSGMSEVIANQGAENVEQVLVTIIQGAVDYPDPIAQKTCFIILSKLVELWGGKDGPVGFADFVYKHIVPACFLAPLKQTFDLADAQTVLALSECAVTLKTIHLKRGPECVQYLQQEYLPSLQVAPEIIQEFCQALQQPDAKVFKNYLKVFFQRAKP
B2: NADPH-cytochrome p450 reductase (protein, UniProt P37040 1-678)
chain: MGDSHEDTSATVPEAVAEEVSLFSTTDIVLFSLIVGVLTYWFIFKKKKEEIPEFSKIQTTAPPVKESSFVEKMKKTGRNIIVFYGSQTGTAEEFANRLSKDAHRYGMRGMSADPEEYDLADLSSLPEIDKSLVVFCMATYGEGDPTDNAQDFYDWLQETDVDLTGVKFAVFGLGNKTYEHFNAMGKYVDQRLEQLGAQRIFELGLGDDDGNLEEDFITWREQFWPAVCEFFGVEATGEESSIRQYELVVHEDMDTAKVYTGEMGRLKSYENQKPPFDAKNPFLAAVTTNRKLNQGTERHLMHLELDISDSKIRYESGDHVAVYPANDSTLVNQIGEILGADLDVIMSLNNLDEESNKKHPFPCPTTYRTALTYYLDITNPPRTNVLYELAQYASEPSEQEHLHKMASSSGEGKELYLSWVVEARRHILAILQDYPSLRPPIDHLCELLPRLQARYYSIASSSKVHPNSVHICAVAVEYEAKSGRVNKGVATSWLRTKEPAGENGRRALVPMFVRKSQFRLPFKPTTPVIMVGPGTGVAPFMGFIQERAWLREQGKEVGETLLYYGCRRSDEDYLYREELARFHKDGALTQLNVAFSREQAHKVYVQHLLKRDKEHLWKLIHEGGAHIYVCGDARNMAKDVQNTFYDIVAEFGPMEHTQAVDYVKKLMTKGRYSLDVWS
B3: Up-regulated during skeletal muscle growth protein 5 (protein, UniProt Q78IK2 1-58)
chain: MAGAESDGQFQFTGIKKYFNSYTLTGRMNCVLATYGGIALLVLYFKLRPKKTPAVKAT
B4: ATPase family AAA domain-containing protein 3 (protein, UniProt Q925I1-1 1-591)
chain: MSWLFGIKGPKGEGTGPPLPLPPAQPGAEGGGDRGAGDRPSPKDKWSNFDPTGLERAAKAARELEHSRHAKEALSLAQMQEQTLQLEQQSKLKEYEAAVEQLKSEQIRVQAEERRKTLTEETRQHQARAQYQDKLARQRYEDQLKQQQLLNEENLRKQEESVQKQEAIRRATVEREMELRHKNEMLRVEAEARARAKADRENADIIREQIRLKAAEHRQTILESIRTAGTLLGEGFRAFVTDWDKVTATVAGLTLLAVGVYSAKNATSVAGRYIEARLGKPSLVRETSRISVLEALRHPIQVSRRLVSRPQDALEGVILSPSLEARVRDIAIATRNTKKNKSLYRNVLMYGPPGTGKTLFAKKLALHSGMDYAIMTGGDVAPMGREGVTAMHKVFDWASTSRRGLLLFVDEADAFLRKRATEKISEDLRATLNAFLHRTGQHSSKFMLVLASNQPEQFDWAINDRIDEMVCFALPQREERERLVRMYFDKYVLKPATEGKQRLKVAQFDYGKKCSEVAQLTEGMSGREIAQLAVAWQAMAYSSEDGVLTEAMMDARVQDAVQQHQQKMQWLKVERPDSQTNKPPHPSLLSC
B5: Armadillo repeat-containing protein 10 (protein, UniProt Q9D0L7-1 1-306)
chain: MGGARDVGWVAAGLVLGAGACYCIYRLTRGPRRGGRRLRPSRSAEDLTDGSYDDILNAEQLKKLLYLLESTDDPVITEKALVTLGNNAAFSTNQAIIRELGGIPIVGNKINSLNQSIKEKALNALNNLSVNVENQTKIKIYVPQVCEDVFADPLNSAVQLAGLRLLTNMTVTNDYQHLLSGSVAGLFHLLLLGNGSTKVQVLKLLLNLSENPAMTEGLLSVQVDSSFLSLYDGQVANEILLRALTLFQNINNCLKVEGRLANQIPFAKGSLFFLLYGEECAQKMRALACHHDVDVKEKALAIKPKF
B6: Vesicle-associated membrane protein-associated protein A (protein, UniProt Q9WV55 1-249)
chain: MASASGAMAKHEQILVLDPPSDLKFKGPFTDVVTTNLKLQNPSDRKVCFKVKTTAPRRYCVRPNSGIIDPGSIVTVSVMLQPFDYDPNEKSKHKFMVQTIFAPPNISDMEAVWKEAKPDELMDSKLRCVFEMPNENDKLNDMEPSKAVPLNASKQDGPLPKPHSVSLNDTETRKLMEECKRLQGEMMKLSEENRHLRDEGLRLRKVAHSDKPGSTSAVSFRDNVTSPLPSLLVVIAAIFIGFFLGKFIL
B7: Prohibitin-1 (protein, UniProt P67778 1-272)
chain: MAAKVFESIGKFGLALAVAGGVVNSALYNVDAGHRAVIFDRFRGVQDIVVGEGTHFLIPWVQKPIIFDCRSRPRNVPVITGSKDLQNVNITLRILFRPVASQLPRIYTSIGEDYDERVLPSITTEILKSVVARFDAGELITQRELVSRQVSDDLTERAATFGLILDDVSLTHLTFGKEFTEAVEAKQVAQQEAERARFVVEKAEQQKKAAIISAEGDSKAAELIANSLATAGDGLIELRKLEAAEDIAYQLSRSRNITYLPAGQSVLLQLPQ
B8: ER membrane protein complex subunit 2 (Emc2) (protein, UniProt Q9CRD2 1-297)
chain: MAKVTERYDVTWEEMRDKMRKWREENSRNSEQIMEVGEELINDYASKLGDDIWIIYEQVMIAALDYGRDDLALFCLQELRRQFPGSHRVKRLTGMRFEAMERYDDAIQLYDRILQEDPTNTAARKRKIAIRKAQGKTVEAIRELNEYLEQFVGDQEAWHELAELYINEHDYAKAAFCLEELMMTNPHNHLYCQQYAEVKYTQGGLENLELSRKYFAQALKLNNRNMRALFGLYMSASHIASNPKASAKMKKDNIKYASWAANQINRAYQFAGRSKKETKYSLKAVEDMLETLQITQS
B9: ATP synthase subunit f (protein, UniProt P56135 1-88)
chain: MASLVPLKEKKLMEVKLGELPSWIMMRDFTPSGIAGAFRRGYDRYYNKYINVRKGSISGISMVLAAYVVFSYCISYKELKHERRRKYH
B10: Emopamil binding protein (protein, UniProt P70245 1-230)
chain: MTTNTVPLHPYWPRHLKLDNFVPNDLPTSHILVGLFSISGGLIVITWLLSSRASVVPLGAGRRLALCWFAVCTFIHLVIEGWFSLYNGILLEDQAFLSQLWKEYSKGDSRYILSDSFVVCMETVTACLWGPLSLWVVIAFLRQQPFRFVLQLVVSMGQIYGDVLYFLTELHEGLQHGEIGHPVYFWFYFVFLNAVWLVIPSILVLDAIKHLTSAQSVLDSKVMKIKSKHN
B11: Golgi-associated plant pathogenesis-related protein 2 (protein, UniProt Q9CYL5 1-154)
chain: MGKSASKQFNNEVLKAHNEYRAQHGVPPLKLCKKLNREAQQYSEALASTRILKHSPESSRGQCGENLAWASYDQTGKDVADRWYSEIKSYNFQQPGFTSGTGHFTAMVWKNTKKIGVGKASASDGSSFVVARYFPAGNIVNQGFFEENVPPPKK
B12: Interferon-induced transmembrane protein 2 (protein, UniProt Q99J93 1-144)
chain: MSHNSQAFLSTNAGLPPSYETIKEEYGVTELGEPSNSAVVRTTVINMPREVSVPDHVVWSLFNTLFFNACCLGFVAYAYSVKSRDRKMVGDVVGAQAYASTAKCLNISSLIFSILMVIICIIIFSTTSVVVFQSFAQRTPHSGF
B13: Cytochrome b5 type B (protein, UniProt Q9CQX2 12-146)
chain: KVEGSEPSVTYYRLEEVAKRNSAEETWMVIHGRVYDITRFLSEHPGGEEVLLEQAGADATESFEDVGHSPDAREMLKQYYIGDVHPSDLKPKGDDKDPSKNNSCQSSWAYWFVPIVGAILIGFLYRHFWADSKSS
B14: LINE-1 type transposase domain-containing protein 1 (protein, UniProt Q587J6 1-782)
chain: MSGVQSKAARLQKERKEKLSADRERKTATSLCLKHSEVPASMMKQFNALMEMQEVMFAEMRETYKNDIKEMLLKRTAPWVKHLEERIGQQEGDAISERPKPGEKVEELSSGTDEDTENLTVRSKKGKQDKAKPLNSSHVLKSSLERGGEALRGEHGRCGESSSLVDWKNANEKPAREASCQSEENRLKAPKESPPEGGAGATLRLAADFSAATLDVGRQWSQVFRLLKEKELEPELQCSVKLAFKCDGEANVFSDLHSLRQFTSRKPFLRELLKDVFPQNEGGRRNELRERLGKTLGDTKHEARRIASDSLSFLFIKEVEVASPEVKTYKEETLDRKNKGTLKKQEGEEEEISETQGEETSEGETSELGEEEGSESEEEEESSESEEEEESSESAEEIGFISLVVDSESEEEVNRKTASQTKKKETFHGLKELAFSYLVWDSKKKKLVRCQEGGAAAASTQRIGMPCLTLYLTSPSESLGAGSDGPKSHSCTKLSALSQVTPLLTNIEKGRYKVPQTEEPTAKEADLILETEENFKRGVISVIRQMQREVDKIKNIYVSDVLNMKSSLDDLNSLACTIEARVSEQEDAVEGLTKDTMQLAREIVDKERLREREDRFRSSNIRVIGIPEKENRENGAVDIIKEVIEENFAELEDQSLEIVSAHRVPNSVDEHRLTPRHILVKFGSASDKQRVLKASRAKQEITYRGSKIRLTADLSPGTIDARSQWCGIIKILQDEGFQPRILYPAKLAFDFKGKTKIFFDIEEFKKFISDIPYLKDLLNNIH

No constants are given. Whether binding was seen depends on the method and setting. Binding seen in cells or lysates may run through a third protein. A yes stands for co-enrichment or nearness to the bait. Other partners may have been found. Sequences can lack the tags named with a protein.

The target of this experiment is T1, murine EpCAM in fusion with yellow fluorescent protein (YFP) at the C-terminus, in mF9 cells (murine) (UniProt Q99JW5).
T1 sequence: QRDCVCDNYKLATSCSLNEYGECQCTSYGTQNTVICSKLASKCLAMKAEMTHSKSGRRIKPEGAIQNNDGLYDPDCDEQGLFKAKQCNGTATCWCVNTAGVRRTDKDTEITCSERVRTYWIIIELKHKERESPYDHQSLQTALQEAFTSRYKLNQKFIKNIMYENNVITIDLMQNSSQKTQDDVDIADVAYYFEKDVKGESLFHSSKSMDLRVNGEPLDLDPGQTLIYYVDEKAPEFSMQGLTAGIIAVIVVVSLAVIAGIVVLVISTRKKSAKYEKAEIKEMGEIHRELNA
The experiment is described as follows: affinity purification with mass spectrometry; SILAC: whole cell lysates of mF9 cells stably expressing EpCAM-YFP (heavy, Lys-8/Arg-10) or YFP (light); 3 or 7 mg lysate with 30 μL GFP-Trap agarose beads, 3 hrs, 4°C; washed in 0.2% tween in PBS; LC-MS/MS; three biological repeats; hits: enriched >3-fold over YFP, p ≤ 0.05, at least 2 unique peptides.
As to B1, the binding entry is given as “binds”.

Regarding B2, the binding result is “binds”. Take B3: the binding entry was “binds”. For B4, the binding result is recorded as “binds”.

With B5, the binding entry is recorded as “binds”.

On to B6, for which the binding result was “binds”. For the molecule B7, the binding entry was “binds”. As for B8, the entry is “binds”. As for B9, the entry is “binds”; as for B10, “binds”. B11: the binding result was “binds”. As for B12, the entry is “binds”; as for B13, “binds”. As to B14, the binding result is given as “binds”.
